No constants are given. Whether binding was seen depends on the method and setting. Some results given as binding are weak or reduced against the parent protein; the word gives no strength. One block for each binder: values may come before it.
What was measured:
CCL16 = biological target: T1, CCL16 (human, UniProt O15467 24-120); test: REAP, yeast-displayed human antigen library
T1 construct: Recombinant human protein in ELISA and BLI
T1 sequence (looked up): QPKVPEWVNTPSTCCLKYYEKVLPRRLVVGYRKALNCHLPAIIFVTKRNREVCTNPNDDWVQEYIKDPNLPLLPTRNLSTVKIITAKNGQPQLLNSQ

Chains of the proteins cited; added tags and fusions are not shown. Lines headed by an entry give the natural chain unless they say otherwise; changes in a name come on top. Residues count along the entry.
UniProt P18510, residues 26-177: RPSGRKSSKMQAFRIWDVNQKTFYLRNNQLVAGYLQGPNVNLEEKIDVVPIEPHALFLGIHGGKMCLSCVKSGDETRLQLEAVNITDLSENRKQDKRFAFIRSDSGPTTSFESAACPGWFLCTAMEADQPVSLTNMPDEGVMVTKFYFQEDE
UniProt P35225, residues 35-146: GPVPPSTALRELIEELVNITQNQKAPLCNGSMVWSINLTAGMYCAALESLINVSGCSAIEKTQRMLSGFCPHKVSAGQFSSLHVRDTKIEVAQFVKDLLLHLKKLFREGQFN
UniProt P05019, residues 49-118: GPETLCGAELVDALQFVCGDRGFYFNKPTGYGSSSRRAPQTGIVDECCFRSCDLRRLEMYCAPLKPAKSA
UniProt P61769: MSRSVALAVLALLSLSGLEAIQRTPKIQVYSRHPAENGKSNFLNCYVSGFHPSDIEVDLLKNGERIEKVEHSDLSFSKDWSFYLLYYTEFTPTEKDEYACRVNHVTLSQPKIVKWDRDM

IL1RN = biological target: T2, IL1RN (human, UniProt P18510 26-177); test: REAP, yeast-displayed human antigen library
T2 construct: Recombinant human protein in ELISA and BLI

IL17A = biological target: T3, IL17A (human, UniProt Q16552 24-155); test: REAP, yeast-displayed human antigen library
T3 construct: Recombinant human protein in ELISA and BLI
T3 sequence (looked up): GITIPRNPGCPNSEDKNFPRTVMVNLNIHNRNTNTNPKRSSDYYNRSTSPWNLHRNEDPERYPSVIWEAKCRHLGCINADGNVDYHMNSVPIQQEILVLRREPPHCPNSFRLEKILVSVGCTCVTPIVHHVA

IL10RA = biological target: T4, IL10RA (human, UniProt Q13651 22-235); test: REAP, yeast-displayed human antigen library
T4 construct: Recombinant human protein in ELISA
T4 sequence (looked up): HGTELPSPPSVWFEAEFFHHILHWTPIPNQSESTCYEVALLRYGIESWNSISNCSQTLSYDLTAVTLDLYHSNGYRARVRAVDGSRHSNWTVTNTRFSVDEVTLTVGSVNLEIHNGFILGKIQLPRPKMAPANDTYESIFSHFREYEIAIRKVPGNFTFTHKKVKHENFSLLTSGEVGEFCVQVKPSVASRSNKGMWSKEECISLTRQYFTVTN

IL13 = biological target: T5, IL13 (human, UniProt P35225 35-146, limits assumed); test: REAP, yeast-displayed human antigen library
T5 construct: Recombinant human protein in ELISA

IL2RG (human) [1] = biological target: T6, IL2RG (human) (UniProt P31785); test: REAP, yeast-displayed human antigen library
T6 sequence (looked up): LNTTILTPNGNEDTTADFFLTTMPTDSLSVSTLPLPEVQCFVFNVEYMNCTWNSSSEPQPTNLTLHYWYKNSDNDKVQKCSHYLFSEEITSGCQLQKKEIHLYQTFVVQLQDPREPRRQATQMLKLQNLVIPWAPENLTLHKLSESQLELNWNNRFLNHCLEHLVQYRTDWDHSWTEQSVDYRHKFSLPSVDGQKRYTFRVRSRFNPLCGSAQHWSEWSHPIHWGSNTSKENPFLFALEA

IL2RG (human) [2] = biological target: T6, IL2RG (human); test: BLI, HIS1K sensor, his-tagged antigen immobilised, nanobody-Fc applied
LAIR2 = biological target: T7, LAIR2 (human, UniProt Q6ISS4 22-152); test: REAP, yeast-displayed human antigen library
T7 construct: Recombinant human protein in ELISA
T7 sequence (looked up): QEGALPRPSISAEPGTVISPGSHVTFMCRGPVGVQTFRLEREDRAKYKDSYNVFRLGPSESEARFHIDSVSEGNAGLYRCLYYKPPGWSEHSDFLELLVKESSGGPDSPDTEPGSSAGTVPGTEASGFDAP

IGF1 (human) = IGF1 (human) (UniProt P05019); test: REAP, yeast-displayed human antigen library
B2M (human) [3] = biological target: B2M (human) (UniProt P61769); test: REAP, yeast-displayed human antigen library
B2M (human) [4] = biological target: B2M (human) (UniProt P61769); test: BLI, HIS1K sensor, his-tagged antigen immobilised, nanobody-Fc applied

B1: CCL16_Nb2.1 (Fc fusion)
chain: QVQLQESGGGLVQAGGSLRLSCAASGYISSYWDMGWYRQAPGKERELVAAIAPGTITYYADSVKGRFTISRDNAKNTVYLQMNSLKPEDTAVYYCAASEFDNEAHDYWGQGTQVTVSS
notes: Nanobody expressed and tested as Fc fusion (human IgG1); not shown: human IgG1 Fc (vector pCER243)
binding (CCL16): binds

B2: IL1RN_Nb75 (Fc fusion)
chain: QVQLQESGGGLVQAGGSLRLSCAASGNIFRYDNMGWYRQAPGKEREFVATITYGSNTYYADSVKGRFTISRDNAKNTVYLQMNSLKPEDTAVYYCAAYFPYRSYDNSADTSSHSYWGQGTQVTVSS
notes: as for B1
binding (IL1RN): binds

B4: IL10RA_Nb72 (Fc fusion)
chain: QVQLQESGGGLVQAGGSLRLSCAASGTISSEHAMGWYRQAPGKERELVAGITYGSITNYADSVKGRFTISRDNAKNTVYLQMNSLKPEDTAVYYCAVYYYYRATIYHALGYWGQGTQVTVSS
notes: as for B1
binding (IL10RA): binds

B5: CCL16_Nb2.5 (Fc fusion)
chain: QVQLQESGGGLVQAGGSLRLSCAASGYIFGVYDMGWYRQAPGKERELVATISAGGTTNYADSVKGRFTISRDNAKNTVYLQMNSLKPEDTAVYYCAAYTDYSPYDGAALVYWGQGTQVTVSS
notes: as for B1
binding (CCL16): binds

B7: IL2RG_Nb3.454 (Fc fusion, not shown: a dimerising Fc or GST)
chain: QVQLQESGGGLVQAGGSLRLSCAASGSIFAGPAMGWYRQAPGKERELVAGIATGGTTYYADSVKGRFTISRDNAKNTVYLQMNSLKPEDTAVYYCAAGYLLLWEGQDGHDYWGQGTQVTVSS
binding (IL2RG (human) [1]): binds | binding (IL2RG (human) [2]): binds

B10: IL1RN_Nb77 (Fc fusion)
chain: QVQLQESGGGLVQAGGSLRLSCAASGTIFTWLVMGWYRQAPGKERELVASIDPGTNTYYADSVKGRFTISRDNAKNTVYLQMNSLKPEDTAVYYCAARYVAGYTVGAYHYYWGQGTQVTVSS
notes: as for B1
binding (IL1RN): binds

B11: IGF1_Nb3.33 (Fc fusion, not shown: a dimerising Fc or GST)
chain: QVQLQESGGGLVQAGGSLRLSCAASGNIFDLPYMGWYRQAPGKERELVATISIGSTTNYADSVKGRFTISRDNAKNTVYLQMNSLKPEDTAVYYCAVVHRSTGGYKYWGQGTQVTVSS
binding (IGF1 (human)): binds

B13: B2M_Nb3.750 (Fc fusion, not shown: a dimerising Fc or GST)
chain: QVQLQESGGGLVQAGGSLRLSCAASGSISQYDEMGWYRQAPGKERELVAGINAGSSTYYADSVKGRFTISRDNAKNTVYLQMNSLKPEDTAVYYCAASSHTDADYAYWGQGTQVTVSS
binding (B2M (human) [3]): binds | binding (B2M (human) [4]): binds

Now from value to binder:

binding (IL17A): binds
B3: IL17A_Nb2.90 (Fc fusion)
chain: QVQLQESGGGLVQAGGSLRLSCAASGYISLRFYMGWYRQAPGKEREFVATIDDGSSTYYADSVKGRFTISRDNAKNTVYLQMNSLKPEDTAVYYCAVTAQTYYDHVYWGQGTQVTVSS
notes: as for B1

binding (IL13): binds
B6: IL13_Nb2.41 (Fc fusion)
chain: QVQLQESGGGLVQAGGSLRLSCAASGTIFVDEFMGWYRQAPGKEREFVASINDGGSTYYADSVKGRFTISRDNAKNTVYLQMNSLKPEDTAVYYCAVFEPSPDGDPFGDRAWFWYWGQGTQVTVSS
notes: as for B1

binding (IL13): binds
B8: IL13_Nb2.42 (Fc fusion)
chain: QVQLQESGGGLVQAGGSLRLSCAASGTISATDFMGWYRQAPGKERELVAAINHGGSTYYADSVKGRFTISRDNAKNTVYLQMNSLKPEDTAVYYCAAARDDYPWHDYWGQGTQVTVSS
notes: as for B1

binding (LAIR2): binds
B9: LAIR2_Nb2.51 (Fc fusion)
chain: QVQLQESGGGLVQAGGSLRLSCAASGSIFYPSAMGWYRQAPGKERELVASIGQGGSTYYADSVKGRFTISRDNAKNTVYLQMNSLKPEDTAVYYCAVQPYSANLHRYWGQGTQVTVSS
notes: as for B1

binding (IL17A): binds
B12: IL17A_Nb2.92 (Fc fusion)
chain: QVQLQESGGGLVQAGGSLRLSCAASGTISQGDYMGWYRQAPGKEREFVASIAIGTITYYADSVKGRFTISRDNAKNTVYLQMNSLKPEDTAVYYCAVSVQFSYDFYYWGQGTQVTVSS
notes: as for B1

— patent US20230416942A1 (YALE UNIVERSITY, published 2023)
